Source: patent US12378320B2, “Methods for treating pancreatitis” (Cold Spring Harbor Laboratory, priority 2018, dated 2025)

System: CA19-9 modified proteins
Experiment: CA19-9 IP/MS (iTRAQ) of organoid conditioned media after Dox treatment
Design: species or system mouse
Conditions: for 17 0H 5B1 (CA19-9 IP/MS relative abundance) / 17 0H NS19 (CA19-9 IP/MS relative abundance) / 17 8H 5B1 (CA19-9 IP/MS relative abundance) / 17 8H NS19 (CA19-9 IP/MS relative abundance): A217 organoid conditioned media; for 17 0H NS19 (CA19-9 IP/MS relative abundance) / 17 8H NS19 (CA19-9 IP/MS relative abundance) / 20 0H NS19 (CA19-9 IP/MS relative abundance) / 20 8H NS19 (CA19-9 IP/MS relative abundance): NS19-9; for 17 0H NS19 (CA19-9 IP/MS relative abundance): every printed value in this column is 1; for 20 0H 5B1 (CA19-9 IP/MS relative abundance) / 20 0H NS19 (CA19-9 IP/MS relative abundance) / 20 8H 5B1 (CA19-9 IP/MS relative abundance) / 20 8H NS19 (CA19-9 IP/MS relative abundance): A220 organoid conditioned media

B1: P53994 (protein, UniProt P53994 1-212, looked up)
chain: MAYAYLFKYIIIGDTGVGKSCLLLQFTDKRFQPVHDLTIGVEFGARMITIDGKQIKLQIWDTAGQESFRSITRSYYRGAAGALLVYDITRRDTFNHLTTWLEDARQHSNSNMVIMLIGNKSDLESRREVKKEEGEAFAREHGLIFMETSAKTASNVEEAFINTAKEIYEKIQEGVFDINNEANGIKIGPQHAATNASHGSNQGGQQAGGGCC
modifications: full-length
- 17 0H 5B1 (CA19-9 IP/MS relative abundance): 0.562
- 17 0H NS19 (CA19-9 IP/MS relative abundance): 1
- 17 8H 5B1 (CA19-9 IP/MS relative abundance): 0.541
- 17 8H NS19 (CA19-9 IP/MS relative abundance): 0.459
- 20 0H 5B1 (CA19-9 IP/MS relative abundance): 0.584
- 20 0H NS19 (CA19-9 IP/MS relative abundance): 1.278
- 20 8H 5B1 (CA19-9 IP/MS relative abundance): 0.527
- 20 8H NS19 (CA19-9 IP/MS relative abundance): 0.775

B2: Q61646 (protein, UniProt Q61646 1-347, looked up)
chain: MRALGAVVTLLLWGQLFAVELGNDAMDFEDDSCPKPPEIANGYVEHLVRYRCRQFYRLRAEGDGVYTLNDEKQWVNTVAGEKLPECEAVCGKPKHPVDQVQRIIGGSMDAKGSFPWQAKMISRHGLTTGATLISDQWLLTTAKNLFLNHSETASAKDITPTLTLYVGKNQLVEIEKVVLHPNHSVVDIGLIKLKQRVLVTERVMPICLPSKDYIAPGRVGYVSGWGRNANFRFTDRLKYVMLPVADQDKCVVHYENSTVPEKKNLTSPVGVQPILNEHTFCAGLTKYQEDTCYGDAGSAFAIHDMEEDTWYAAGILSFDKSCAVAEYGVYVRATDLKDWVQETMAKN
modifications: full-length
- 17 0H 5B1 (CA19-9 IP/MS relative abundance): 0.356
- 17 0H NS19 (CA19-9 IP/MS relative abundance): 1
- 17 8H 5B1 (CA19-9 IP/MS relative abundance): 0.181
- 17 8H NS19 (CA19-9 IP/MS relative abundance): 1.119
- 20 0H 5B1 (CA19-9 IP/MS relative abundance): 0.214
- 20 0H NS19 (CA19-9 IP/MS relative abundance): 1.098
- 20 8H 5B1 (CA19-9 IP/MS relative abundance): 0.467
- 20 8H NS19 (CA19-9 IP/MS relative abundance): 0.849

B3: P52955 (protein, UniProt P52955 1-282, looked up)
chain: MTSKEDGKAAPGEERRRSPLDHLPPPANSNKPLTPFSIEDILNKPSVRRSYSLCGAAHLLAAADKHAPGGLPLAGRALLSQTSPLCALEELASKTFKGLEVSVLQAAEGRDGMTIFGQRQTPKKRRKSRTAFTNHQIYELEKRFLYQKYLSPADRDQIAQQLGLTNAQVITWFQNRRAKLKRDLEEMKADVESAKKLGPSGQMDIVALAELEQNSEASGGGGGGGCGRAKSRPGSPALPPGAPQAPGGGPLQLSPASPLTDQRASSQDCSEDEEDEEIDVDD
modifications: full-length
- 17 0H 5B1 (CA19-9 IP/MS relative abundance): 0.11
- 17 0H NS19 (CA19-9 IP/MS relative abundance): 1
- 17 8H 5B1 (CA19-9 IP/MS relative abundance): 0.108
- 17 8H NS19 (CA19-9 IP/MS relative abundance): 0.826
- 20 0H 5B1 (CA19-9 IP/MS relative abundance): 0.092
- 20 0H NS19 (CA19-9 IP/MS relative abundance): 0.643
- 20 8H 5B1 (CA19-9 IP/MS relative abundance): 0.084
- 20 8H NS19 (CA19-9 IP/MS relative abundance): 0.732

B4: Q99KP6 (protein, UniProt Q99KP6 1-504, looked up)
chain: MSLICSISNEVPEHPCVSPVSNHVYERRLIEKYIAENGTDPINNQPLSEEQLIDIKVAHPIRPKPPSATSIPAILKALQDEWDAVMLHSFTLRQQLQTTRQELSHALYQHDAACRVIARLTKEVTAAREALATLKPQAGLIVPQAVPSSQPSVVGAGEPMDLGELVGMTPEIIQKLQDKATVLTTERKKRGKTVPEELVKPEELSKYRQVASHVGLHSASIPGILALDLCPSDTNKILTGGADKNVVVFDKSTEQILATLKGHTKKVTSVVFHPSQELVFSASPDATIRIWSVPNTSCVQVVRAHESAVTGLSLHATGDYLLSSSDDQYWAFSDIQTGRVLTKVTDETSGCSLTCAQFHPDGLIFGTGTMDSQIKIWDLKERTNVANFPGHSGPITSIAFSENGYYLATAADDSSVKLWDLRKLKNFKTLQLDNNFEVKSLIFDQSGTYLALGGTDVQIYICKQWTEILHFTEHSGLTTGVAFGHHAKFIASTGMDRSLKFYSL
modifications: full-length
- 17 0H 5B1 (CA19-9 IP/MS relative abundance): 4.136
- 17 0H NS19 (CA19-9 IP/MS relative abundance): 1
- 17 8H 5B1 (CA19-9 IP/MS relative abundance): 3.436
- 17 8H NS19 (CA19-9 IP/MS relative abundance): 0.411
- 20 0H 5B1 (CA19-9 IP/MS relative abundance): 3.364
- 20 0H NS19 (CA19-9 IP/MS relative abundance): 0.514
- 20 8H 5B1 (CA19-9 IP/MS relative abundance): 4.537
- 20 8H NS19 (CA19-9 IP/MS relative abundance): 0.591

B5: Q8VGI4 (protein, UniProt Q8VGI4 1-310, looked up)
chain: METQNHTTVTEFILLGLTESSTLRVILFMVFLGIYTVTLVGNFSIISLIRSCPQLHTPMYLFLSHLAFVDIGFSTSITPTMFKGFLGNRLVLSVAACIAQFCITVTFGTVECFLLAVMAYDRYVAICSPLLYSTHMSPRICFLLVGASYVGGCVNSGAFTSCLSILSFCGPNQIDHFFCDFPAVLKLSCSDVSIIGIIPSISAGSIIVITVFVIAVSYAYILITILKMRSTEGRQKAFSTCTSHLTAVTLYYGTITFIYVMPKSNYSTAQNKILSVFYTVVIPMLNPLIYSLRNRDVKEALRKAIIRIFP
modifications: full-length
- 17 0H 5B1 (CA19-9 IP/MS relative abundance): 3.468
- 17 0H NS19 (CA19-9 IP/MS relative abundance): 1
- 17 8H 5B1 (CA19-9 IP/MS relative abundance): 3.627
- 17 8H NS19 (CA19-9 IP/MS relative abundance): 0.255
- 20 0H 5B1 (CA19-9 IP/MS relative abundance): 3.109
- 20 0H NS19 (CA19-9 IP/MS relative abundance): 0.322
- 20 8H 5B1 (CA19-9 IP/MS relative abundance): 3.6
- 20 8H NS19 (CA19-9 IP/MS relative abundance): 0.366

B6: P08113 (protein, UniProt P08113 1-802, looked up)
chain: MRVLWVLGLCCVLLTFGFVRADDEVDVDGTVEEDLGKSREGSRTDDEVVQREEEAIQLDGLNASQIRELREKSEKFAFQAEVNRMMKLIINSLYKNKEIFLRELISNASDALDKIRLISLTDENALAGNEELTVKIKCDKEKNLLHVTDTGVGMTREELVKNLGTIAKSGTSEFLNKMTEAQEDGQSTSELIGQFGVGFYSAFLVADKVIVTSKHNNDTQHIWESDSNEFSVIADPRGNTLGRGTTITLVLKEEASDYLELDTIKNLVRKYSQFINFPIYVWSSKTETVEEPLEEDEAAKEEKEESDDEAAVEEEEEEKKPKTKKVEKTVWDWELMNDIKPIWQRPSKEVEEDEYKAFYKSFSKESDDPMAYIHFTAEGEVTFKSILFVPTSAPRGLFDEYGSKKSDYIKLYVRRVFITDDFHDMMPKYLNFVKGVVDSDDLPLNVSRETLQQHKLLKVIRKKLVRKTLDMIKKIADEKYNDTFWKEFGTNIKLGVIEDHSNRTRLAKLLRFQSSHHSTDITSLDQYVERMKEKQDKIYFMAGSSRKEAESSPFVERLLKKGYEVIYLTEPVDEYCIQALPEFDGKRFQNVAKEGVKFDESEKTKESREATEKEFEPLLNWMKDKALKDKIEKAVVSQRLTESPCALVASQYGWSGNMERIMKAQAYQTGKDISTNYYASQKKTFEINPRHPLIRDMLRRIKEDEDDKTVMDLAVVLFETATLRSGYLLPDTKAYGDRIERMLRLSLNIDPEAQVEEEPEEEPEDTSEDAEDSEQDEGEEMDAGTEEEEEETEKESTEKDEL
modifications: full-length
- 17 0H NS19 (CA19-9 IP/MS relative abundance, A217 (genetic negative) organoid conditioned media, 0H (before treatment), IP with NS19-9, reference channel = 1): 1
- 17 8H 5B1 (CA19-9 IP/MS relative abundance, A217 (genetic negative) organoid conditioned media, after 8 hours, IP with 5B1): 3.435
- 17 8H NS19 (CA19-9 IP/MS relative abundance, A217 (genetic negative) organoid conditioned media, after 8 hours, IP with NS19-9): 0.927
- 20 0H 5B1 (CA19-9 IP/MS relative abundance, A220 (C;R^LSL;F) organoid conditioned media, 0H (before treatment), IP with 5B1): 2.739

B7: Q8QZY1 (protein, UniProt Q8QZY1 1-564, looked up)
chain: MSYPADDYESEAAYDPYAYPGDYDMHTGDPKQDLAYERQYEQQTYQVIPEVIKNFIQYFHKTVSDLIDQKVYELQASRVSSDVIDQKVYEIQDIYENSWTKLTERFFKNTPWPEAEAIAPQVGNDAVFLILYKELYYRHIYAKVSGGPSLEQRFESYYNYCNLFNYILNADGPAPLELPNQWLWDIIDEFIYQFQSFSQYRCKTAKKSEGEMDFLRSNPKVWNVHSVLNVLHSLVDKSNINRQLEVYTSGGDPESVAGEYGRHSLYKMLGYFSLVGLLRLHSLLGDYYQAIKVLENIELNKKSMYSRVPECQVTTYYYVGFAYLMMRRYQDAIRVFANILLYIQRTKSMFQRTTYKYEMINKQNEQMHALLAIALTMYPMRIDESIHLQLREKYGDKMLRMQKGDPQVYEELFSYACPKFLSPVVPNYDNVHPNYHKEPFLQQLKVFSDEVQQQAQLSTIRSFLKLYTTMPVAKLAGFLDLTEQEFRIQLLVFKHKMKNLVWTSGISALDGEFQSASEVDFYIDKDMIHIADTKVARRYGDFFIRQIHKFEELNRTLKKMGQRP
modifications: full-length
- 17 0H 5B1 (CA19-9 IP/MS relative abundance): 3.805
- 17 0H NS19 (CA19-9 IP/MS relative abundance): 1
- 17 8H 5B1 (CA19-9 IP/MS relative abundance): 3.518
- 17 8H NS19 (CA19-9 IP/MS relative abundance): 0.853
- 20 0H 5B1 (CA19-9 IP/MS relative abundance): 2.789
- 20 0H NS19 (CA19-9 IP/MS relative abundance): 0.79
- 20 8H 5B1 (CA19-9 IP/MS relative abundance): 3.222
- 20 8H NS19 (CA19-9 IP/MS relative abundance): 1.255
